Values of other authors in US10945966B2, “PEGylated lipid nanoparticle with bioactive lipophilic compound” (Eyesiu Medicines B.V., priority 2015, dated 2021).
At least one compound was matched to its structure with a doubt left.

Conditions: cited from earlier work

C/C=C/C[C@@H](C)[C@@H](O)[C@H]1C(=O)N[C@@H](CCC)C(=O)N(C)CC(=O)N(C)[C@@H](CC(C)C)C(=O)N[C@@H](C(C)C)C(=O)N(C)[C@@H](CC(C)C)C(=O)N[C@@H](C)C(=O)N[C@H](C)C(=O)N(C)[C@@H](CC(C)C)C(=O)N(C)[C@@H](CC(C)C)C(=O)N(C)[C@@H](C(C)C)C(=O)N1C [cyclosporine G]
nephrotoxicity compared with cyclosporine A: less nephrotoxic
